Data taken from doi:10.1101/2022.09.22.509111.
Results are given in words; binding and its absence hold for the method and conditions named. Some entries that bind do so weakly or less than the wild type. For some assays here: Sequences can lack the tags named with a protein.

How the values were obtained:
[1] = molecular target: SUMO-42-serine-Halo; test: pelleting by ultracentrifugation
[2] = molecular target: 42-serine-Halo (SUMO tag removed by TEV); test: pelleting by ultracentrifugation

B1: SUMO-42-serine-Halo (peptide)
chain: SSSSSSSSSSSSSSSSSSSSSSSSSSSSSSSSSSSSSSSSSS
modifications: JF549 Halo ligand on the Halo tag (lysate was labeled before purification)
[1]
  binding: binds

B2: 42-serine-Halo (SUMO tag removed by TEV) (peptide)
chain: B1 chain
modifications: JF549 Halo ligand on the Halo tag (lysate was labeled before purification)
[2]
  binding: binds
